Reference: patent US20240358849A1 (SUZHOU FUSE BIOSCIENCES, published 2024)
Results are given in words; binding and its absence hold for the method and conditions named. Some binding calls cover weakened binding; strength is not graded here.

Amino acid sequences for entries named in this document (tags omitted). A change or cut given only in a name is not applied to a line headed by its entry.
UniProt P60568: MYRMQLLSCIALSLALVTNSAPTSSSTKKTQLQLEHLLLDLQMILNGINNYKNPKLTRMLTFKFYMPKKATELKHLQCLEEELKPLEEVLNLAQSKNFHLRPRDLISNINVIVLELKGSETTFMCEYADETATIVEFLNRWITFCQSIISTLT
UniProt Q12884: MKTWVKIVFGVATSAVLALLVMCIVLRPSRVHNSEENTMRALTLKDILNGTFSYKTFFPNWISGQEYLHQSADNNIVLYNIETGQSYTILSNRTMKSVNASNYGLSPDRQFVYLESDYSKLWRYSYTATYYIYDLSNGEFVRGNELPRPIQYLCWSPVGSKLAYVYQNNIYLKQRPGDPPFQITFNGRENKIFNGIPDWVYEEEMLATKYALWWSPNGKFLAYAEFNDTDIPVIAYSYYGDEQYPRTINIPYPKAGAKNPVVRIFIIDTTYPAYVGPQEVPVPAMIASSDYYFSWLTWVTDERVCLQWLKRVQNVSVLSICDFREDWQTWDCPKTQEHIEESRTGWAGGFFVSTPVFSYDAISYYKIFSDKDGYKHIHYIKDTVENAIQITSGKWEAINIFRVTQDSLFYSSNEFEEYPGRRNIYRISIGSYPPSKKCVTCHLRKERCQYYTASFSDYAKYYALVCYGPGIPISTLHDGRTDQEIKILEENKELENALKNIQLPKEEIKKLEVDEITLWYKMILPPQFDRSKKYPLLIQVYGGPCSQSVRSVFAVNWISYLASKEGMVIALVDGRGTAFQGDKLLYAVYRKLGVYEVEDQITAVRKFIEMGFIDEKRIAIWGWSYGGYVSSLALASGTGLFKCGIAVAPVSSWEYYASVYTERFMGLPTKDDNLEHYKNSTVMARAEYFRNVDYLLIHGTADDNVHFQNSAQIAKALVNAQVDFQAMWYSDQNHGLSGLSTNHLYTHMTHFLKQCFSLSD

Columns and labels:
[1] = target: T1, human interleukin-2 (IL-2), wild type (human, UniProt P60568 21-153, biotinylated when immobilized); assay: binding kinetics (FIG. 33B)
T1 construct: also called biotinylated IL-2; IL2 WT

[2] = target: T1, human interleukin-2 (IL-2), wild type; assay: bio-layer interferometry, IL-2 loaded on the sensor (about 100 to 350 s, to about 0.5 nm), B10 alone in the first antibody step, then no second antibody
[3] = target: T1, human interleukin-2 (IL-2), wild type; assay: bio-layer interferometry, equilibrium binding analysis of the sensorgrams of FIG. 4A
[4] = target: T1, human interleukin-2 (IL-2), wild type; assay: bio-layer interferometry, biotinylated IL-2 on streptavidin sensor, monovalent Fab-Fc fusion of D002 in solution
[5] = target: T1, human interleukin-2 (IL-2), wild type; assay: screening of phage libraries, monoclonal phage ELISA
[6] = target: human Fibroblast Activation Protein (FAP), soluble antigen (human) (UniProt Q12884); assay: BLI per 6.1.3 (N.B. = no detectable binding); reformatted antibody tested by BLI at 1 µM

B1: two-in-one antibody B10 (bispecific antibody, V domains shown)
VH: EVQLVESGGGLVQPGGSLRLSCAASGFTFSRYSMGWVRQAPGKGLEWVSTIHSHGSGTRYADSVKGRFTISRDNSKNTLYLQMNSLRAEDTAVYYCARSQYGRYYSPDYYFDYWGQGTLVTVSS
VL: DIQMTQSPSSLSASVGDRVTITCRASQNIARYLNWYQQKPGKAPKLLIYAASSLQSGVPSRFSGSGSGTDFTLTISSLQPEDFATYYCQQGRYSPFTFGQGTKVEIKR
- binding [1]: binds
- binding [2]: binds

B2: anti-IL-2/anti-FAP two-in-one antibody D002 (bispecific antibody, V domains shown)
VH: EVQLVESGGGLVQPGGSLRLSCAASGFTFSRYSMSWVRQAPGKGLEWVSDISSYSTTYYADSVKGRFTISRDNSKNTLYLQMNSLRAEDTAVYYCARSQYGRYYSPDYYFDYWGQGTLVTVSS
VL: DIQMTQSPSSLSASVGDRVTITCRASQSIGNSLNWYQQKPGKAPKLLIYAASSLQSGVPSRFSGSGSGTDFTLTISSLQPEDFATYYCQQGRRSPFTFGQGTKVEIKR
- binding [3]: binds
- binding [4]: binds
- binding [5]: binds

B3: anti-IL-2/anti-FAP two-in-one antibody D001 (bispecific antibody, V domains shown)
VH: EVQLVESGGGLVQPGGSLRLSCAASGFTFSRYSMSWVRQAPGKGLEWVSAISPYGGGTDYADSVKGRFTISRDNSKNTLYLQMNSLRAEDTAVYYCARSQYGRYYSPDYYFDYWGQGTLVTVSS
VL: DIQMTQSPSSLSASVGDRVTITCRASQVIGSSLNWYQQKPGKAPKLLIYAASSLQSGVPSRFSGSGSGTDFTLTISSLQPEDFATYYCQQGRSYPYTFGQGTKVEIKR
notes: Fab/scFv or monovalent Fab-Fc
- binding [5]: binds

B4: anti-IL-2/anti-FAP two-in-one antibody D029 (bispecific antibody, V domains shown)
VH: EVQLVESGGGLVQPGGSLRLSCAASGFTFTWSFMSWVRQAPGKGLEWVSWIGPSGSYTDYADSVKGRFTISRDNSKNTLYLQMNSLRAEDTAVYYCARSQYGRYYSPDYYFDYWGQGTLVTVSS
VL: DIQMTQSPSSLSASVGDRVTITCRASQDGGNYLNWYQQKPGKAPKLLIYGASTLYSGVPSRFSGSGSGTDFTLTISSLQPEDFATYYCQQGRTPPLTFGQGTKVEIKR
- binding [6]: no binding (tested: 1 µM)
- binding [5]: binds
